The results are deposited in PubChem (AID1224904; Broad Institute, 2016).

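Control-channel Italica luciferase signal in doxycycline-induced 293T-iDUX4 cells, given as percent activity after a 24-hour treatment.
The test concentration is not given here.
Percent change in the Italica control signal; more negative values mean stronger inhibition, which points to nonspecific, tet-on or cytotoxic effects.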

Values are in %.
Common to all entries: measured here: Italica tet-on control reporter.
This is a side read-out of the assay, for part of the compounds, not drawn at random.

For COc1ccc2c3c([nH]c2c1)[C@@H](CO)N(C(=O)Nc1ccc(F)cc1)CC31CN(C(=O)Cc2ccccc2)C1 the result was activity change -40.22%.
For CCS(=O)(=O)N1CC2(CN(Cc3ccccc3F)[C@H](CO)c3[nH]c4cc(OC)ccc4c32)C1 the result was activity change -32.39%.
For O=C(Nc1cccc(F)c1)N1CCCCN2[C@H](CO)[C@@H](c3ccc(C#CC4CC4)cc3)[C@H]2C1 the result was activity change -20.41%.
For Fc1cccc(CN2C[C@@H]3N[C@H](C2)C3c2ccc(/C=C/c3ccccc3)cc2)c1 (stereo not given in full) the result was activity change -96.92%.
For CO[C@@H]1CN(C)C(=O)c2ccc(NC(=O)c3cc(C)on3)cc2OC[C@@H](C)N(S(=O)(=O)c2cccc(F)c2)C[C@H]1C the result was activity change -4.793%.
For COc1ccc(-c2ccc3c(c2)[C@H]2[C@H](CCN2C(=O)NC2CCCCC2)[C@H](CO)N3C)cc1 the result was activity change -32.88%.
For O=C(C[C@H]1CC[C@@H](NC(=O)Nc2cc(F)ccc2F)[C@@H](CO)O1)Nc1ccc(-c2ccccc2)cc1 the result was activity change -2.117%.
For CCc1sc(N2[C@@H](C#N)[C@@H](c3ccccc3-c3cccc(C)c3)[C@@H]2CO)nc1C the result was activity change -19.58%.
For O=C(Nc1cccc(F)c1)N1C[C@@H]2N[C@H](C1)C2c1ccc(-c2cccnc2)cc1 (stereo not given in full) the result was activity change -63.81%.
For CC(=O)N1CC2(C1)[C@@H](c1ccc(-c3ccc(F)cc3)cc1)[C@@H](CO)N2CC1CC1 the result was activity change -10.54%.
For CO[C@H](CN(C)S(=O)(=O)c1cccc(Cl)c1)[C@H](C)CN([C@@H](C)CO)S(=O)(=O)c1cccc(Cl)c1 the result was activity change -26.36%.
For OC[C@H]1[C@@H](c2ccc(-c3ccccc3F)cc2)[C@H]2CN(Cc3ccncc3)CCCCN21 the result was activity change -2.813%.
For CC(C)NC(=O)N1CCCCN2[C@H](C1)[C@@H](c1ccc(C#Cc3ccccc3)cc1)[C@@H]2CO the result was activity change -26.33%.
For CCC(=O)N1CC[C@H]2[C@@H]1c1cc(C#Cc3ccccc3OC)ccc1N(C)[C@H]2CO the result was activity change -15.53%.
For O=C(c1ccc2c(c1)OCO2)N1CC(=O)N2[C@@H](CO)[C@@H](c3ccc(C#CCC4CCCC4)cc3)[C@@H]2C1 the result was activity change -18.05%.
For N#C[C@@H]1[C@H](c2ccccc2/C=C/c2ccccc2)[C@H](CO)N1S(=O)(=O)c1ccc(F)cc1 the result was activity change -14.76%.
For COc1cccc(CN2CC3(C2)CN(C(=O)C2CC2)[C@H](CO)c2[nH]c4cc(OC)ccc4c23)c1 the result was activity change 0.5375%.
For C[C@H]1CN([C@@H](C)CO)C(=O)CCCn2cc(nn2)CO[C@H]1CN(C)Cc1ccccc1C(F)(F)F the result was activity change -4.933%.
For COc1ccc(C#Cc2ccc([C@@H]3[C@H]4CN(C(=O)Nc5ccccc5F)CCCCN4[C@H]3CO)cc2)cc1 the result was activity change -86.44%.
For CCCNC(=O)C[C@@H]1CC[C@H]2[C@@H](COC[C@H](O)CN2Cc2ccc(Cl)c(Cl)c2)O1 the result was activity change -9.208%.
For O=C(Nc1ccc(F)cc1)N1CC(=O)N2[C@H](CO)[C@H](c3ccc(C#Cc4cccnc4)cc3)[C@@H]2C1 the result was activity change -18.78%.

The first 2 entries again:

With COc1ccc2c3c([nH]c2c1)[C@@H](CO)N(C(=O)Nc1ccc(F)cc1)CC31CN(C(=O)Cc2ccccc2)C1 the assay gave activity change -40.22%.
With CCS(=O)(=O)N1CC2(CN(Cc3ccccc3F)[C@H](CO)c3[nH]c4cc(OC)ccc4c32)C1 the assay gave activity change -32.39%.